# Laboratory results: patent publication US20130274352A1, “Oral Drug Devices and Drug Formulations” (The Regents of the University of California, priority 2009, published 2013)
# System: Caco-2 cells
# Test: Overall potential (OP = EP − TP)
# Format: cell-based, human
SMILES,"OP (single CPE, Conc. 0.01%)","concentration of maximum in OP (14 discrete concentrations, FIG. 2D)"
"CCCCCCCCCCCCCCCC(=O)OC(CC(=O)O)C[N+](C)(C)C.[Cl-] (centres unmarked) [PCC, Palmitoyl carnitine chloride]",0.57,–
"CCCCCCCC/C=C\CCCCCCCC(=O)[O-].[Na+] [SOA, Sodium oleate]",–,0.15%
